# Laboratory results published in publication PMC7862700.
# The entries are a selection whose mix differs from that of the whole data set. At the low end of the ranking the order means little.
# Target: SPI1 (UniProt P17947)
# Assay: DAPPL (digital affinity profiling via proximity ligation, sequencing)
# Conditions: 10 mM Tris-HCl pH 7.5, 50 mM NaCl, 1 mM DTT, 4% glycerol, room temperature, 30 min; GST-TFs on glutathione beads, 16-mer random dsDNA library, 0.1% …; high values mean tight binding; double strand, one strand shown; scale: fold enrichment (6-mer frequency, TF over GST control)
row,Sequence,binding signal
1,CGGCCG,0.793
2,GTCTGA,0.872
3,GAGACC,0.212
4,GGTAGT,0.733
5,TGTGTC,0.731
6,AGCTGG,0.888
7,AGCAGG,0.862
8,CAGAGT,0.601
9,GCGGTG,0.533
10,CGGCCA,0.798
11,CCATCG,0.776
12,CAGGTT,0.661
13,GACAAC,0.941
14,CCGTGA,0.191
15,GGAGGA,0.255
16,AGACGA,0.748
17,GCGCAA,0.81
18,GCAGAG,0.625
19,AGCGCA,0.894
20,CAAGAG,0.727

# Taken from above:
# Under binding signal, TGTGTC is entered as 0.731
# Under binding signal, AGCAGG is entered as 0.862

# (next part)

row,Sequence,binding signal
1,GCCGTA,0.754
2,GCGGGA,0.376
3,AGGGCG,0.552
4,CGTGCA,0.705
5,GGGGTC,0.649
6,CAAGGC,0.86
7,TTGTCG,0.876
8,CGCTGA,0.821
9,GAGTGC,0.575
10,TCGGGG,0.427
11,TCAGTC,0.62
12,GTGACG,0.848
13,AGACCA,0.595
14,GAGCTA,0.972
15,TCAGCG,0.799
16,TCGTGC,0.756
17,GGCAAA,0.886
18,CGTGTG,0.413
19,AGCCAG,0.443
